{
  "sequences": {"note": "Sequences of proteins named here, by UniProt entry; tags and fusion partners are left off. A change or cut given only in a name is not applied to a line headed by its entry. A line that says so, or that is headed by a name, gives the form on record, which may keep a tag or linker.", "biotinylated cynomolgus CD40 (Acro Biosystem) (G7PG38, form named)": "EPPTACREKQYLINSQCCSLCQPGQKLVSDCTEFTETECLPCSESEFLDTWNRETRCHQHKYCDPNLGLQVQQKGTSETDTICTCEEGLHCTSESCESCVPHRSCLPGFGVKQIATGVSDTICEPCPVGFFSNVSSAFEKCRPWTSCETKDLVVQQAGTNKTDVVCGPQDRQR", "UniProt P25942": "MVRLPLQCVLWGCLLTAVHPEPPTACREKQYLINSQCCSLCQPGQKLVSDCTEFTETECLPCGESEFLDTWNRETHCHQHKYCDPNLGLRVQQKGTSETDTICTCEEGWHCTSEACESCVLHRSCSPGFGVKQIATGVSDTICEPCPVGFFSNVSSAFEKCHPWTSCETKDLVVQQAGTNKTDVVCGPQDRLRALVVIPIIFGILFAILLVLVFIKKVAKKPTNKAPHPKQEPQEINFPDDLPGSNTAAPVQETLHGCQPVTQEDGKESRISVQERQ"},
  "source": "patent US20210395318A1",
  "key": {"[1]": {"biological_target": "biotinylated cynomolgus CD40 (Acro Biosystem) (cynomolgus) (UniProt G7PG38)", "experiment": "SPR"}, "[2]": {"biological_target": "biotinylated human CD40 (Acro Biosystem) (human) (UniProt P25942)", "experiment": "SPR"}, "[3]": {"biological_target": "biotinylated human CD40 (bio-hCD40-Fc) (human) (UniProt P25942)", "experiment": "SPR, sequential injections"}, "[4]": {"biological_target": "recombinant hCD40 expressed in Hi5 cells (human tumor necrosis factor receptor superfamily member 5) (human) (UniProt P25942)", "experiment": "X-ray crystallography of the complex, 2.29 A"}, "[5]": {"biological_target": "recombinant hCD40 expressed in Hi5 cells (human tumor necrosis factor receptor superfamily member 5) (human) (UniProt P25942)", "experiment": "X-ray crystallography of the complex"}},
  "note": "These are yes or no findings as the source states them, for the method shown. Some results given as binding are weak or reduced against the parent protein; the word gives no strength.",
  "data": [
    {"binder": "DARPin Protein #5 (designed binder) GSDLGKKLLEAARAGQDDEVRELLKAGADVNAKDYFSHTPLHLAARNGHLKIVEVLLKAGADVNAKDFAGKTPLHLAAADGHLEIVEVLLKAGADVNAQDIFGKTPADIAADAGHEDIAEVLQKAAGSPTPTPTTPTPTPTTPTPTPTGSDLGKKLLEAARAGQDDEVRILLAAGADVNAKDVLGWTPLHLAAFEGHLEIVEVLLKAGADVNAKDKKGWTPLQLAARTGHLEIVEVLLKAGADVNAKDHIGATPLHLAAWQGHPEIVEVLLKAGADVNAQDKSGKTPADLAADAGHEDIAEVLQKAAGSPTPTPTTPTPTPTTPTPTPTGSDLGKKLLQAARAGQLDEVRELLKAGADVNAKDTWGFTPLHIAAESGHLEIVEVLLKAGADVNAKDVQGRTPLHIAAHSGHLEIVEVLLKAGADVNAKDFRGWTPLHLAAWSGHLEIVEILLKAGADVNAQDKSGKTPADLAARAGHQDIAEVLQKAAGSPTPTPTTPTPTPTTPTPTPTGSDLGKKLLQAARAGQLDEVRELLKAGADVNAKDTWGFTPLHIAAESGHLEIVEVLLKAGADVNAKDVQGRTPLHIAAHSGHLEIVEVLLKAGADVNAKDFRGWTPLHLAAWSGHLEIVEILLKAGADVNAQDKSGKTPADLAARAGHQDIAEVLQKAA", "values": [
      {"measurement": "binding", "setting": "[1]", "result": "binds"},
      {"measurement": "binding", "setting": "[2]", "result": "binds"},
      {"measurement": "binding", "setting": "[3]", "result": "binds"}
    ]},
    {"binder": "CD40-specific DARPin protein with the amino acid sequence of SEQ ID NO: 3 (designed binder) DLGKKLLQAARAGQLDEVRELLKAGADVNAKDTWGFTPLHIAAESGHLEIVEVLLKAGADVNAKDVQGRTPLHIAAHSGHLEIVEVLLKAGADVNAKDFRGWTPLHLAAWSGHLEIVEILLKAGADVNAQDKSGKTPADLAARAGHQDIAEVLQKAA", "values": [
      {"measurement": "binding", "setting": "[4]", "result": "binds"},
      {"measurement": "binding", "setting": "[5]", "result": "binds"}
    ]}
  ]
}
